In paper doi:10.1101/2023.06.30.547196:
These are yes or no findings as the source states them, for the method shown. In cells and extracts the contact can be indirect. Some binding calls cover weakened binding; strength is not graded here. Tags and fused reporters may be left off the sequences shown.

Chains of the proteins cited; added tags and fusions are not shown.
UniProt Q8IY18: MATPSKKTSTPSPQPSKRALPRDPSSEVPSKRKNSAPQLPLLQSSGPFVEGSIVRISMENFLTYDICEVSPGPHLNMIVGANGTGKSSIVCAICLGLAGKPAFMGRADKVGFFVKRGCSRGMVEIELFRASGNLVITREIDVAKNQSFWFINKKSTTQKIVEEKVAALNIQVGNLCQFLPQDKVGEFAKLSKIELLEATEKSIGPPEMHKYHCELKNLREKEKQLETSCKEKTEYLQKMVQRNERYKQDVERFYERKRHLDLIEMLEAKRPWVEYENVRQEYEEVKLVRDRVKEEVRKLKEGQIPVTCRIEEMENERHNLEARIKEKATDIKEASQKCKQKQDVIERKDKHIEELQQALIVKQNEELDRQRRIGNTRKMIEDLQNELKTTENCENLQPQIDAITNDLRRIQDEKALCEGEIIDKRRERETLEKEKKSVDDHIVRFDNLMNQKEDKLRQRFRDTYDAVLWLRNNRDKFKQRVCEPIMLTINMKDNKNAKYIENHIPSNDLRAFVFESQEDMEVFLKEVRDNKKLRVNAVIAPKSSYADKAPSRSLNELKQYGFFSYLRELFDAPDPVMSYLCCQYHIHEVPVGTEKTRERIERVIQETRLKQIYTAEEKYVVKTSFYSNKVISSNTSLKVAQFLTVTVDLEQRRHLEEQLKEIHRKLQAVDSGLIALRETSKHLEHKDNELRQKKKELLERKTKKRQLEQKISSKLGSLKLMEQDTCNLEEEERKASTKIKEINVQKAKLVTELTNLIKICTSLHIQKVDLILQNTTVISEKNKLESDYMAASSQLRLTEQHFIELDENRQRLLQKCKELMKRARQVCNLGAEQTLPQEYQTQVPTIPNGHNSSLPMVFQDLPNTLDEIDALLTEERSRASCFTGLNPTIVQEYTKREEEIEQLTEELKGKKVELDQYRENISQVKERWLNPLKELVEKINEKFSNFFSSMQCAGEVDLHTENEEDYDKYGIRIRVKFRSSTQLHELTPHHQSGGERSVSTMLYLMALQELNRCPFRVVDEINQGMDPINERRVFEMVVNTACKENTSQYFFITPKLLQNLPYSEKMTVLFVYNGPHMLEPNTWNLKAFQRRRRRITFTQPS

Target: T1, Flag-tagged full-length NFATC2IP (human) (UniProt Q8NCF5)
T1 sequence: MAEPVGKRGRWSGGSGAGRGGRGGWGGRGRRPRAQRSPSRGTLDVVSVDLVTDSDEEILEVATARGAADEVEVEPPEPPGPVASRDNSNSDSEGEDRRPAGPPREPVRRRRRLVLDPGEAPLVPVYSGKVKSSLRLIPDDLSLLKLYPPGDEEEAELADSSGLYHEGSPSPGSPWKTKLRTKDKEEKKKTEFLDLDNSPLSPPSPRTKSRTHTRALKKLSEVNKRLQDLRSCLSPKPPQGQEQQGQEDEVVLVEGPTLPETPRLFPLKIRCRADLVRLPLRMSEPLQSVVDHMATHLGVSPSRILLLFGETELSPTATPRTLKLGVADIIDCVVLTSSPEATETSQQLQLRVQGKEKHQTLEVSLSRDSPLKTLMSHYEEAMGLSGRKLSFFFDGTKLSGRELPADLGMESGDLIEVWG
Test: co-IP

binding: binds
Substance: endogenous SMC5 (from UniProt Q8IY18 1-1101)
